Data as given in PMC11408250.

Biological target: T1, PCDH19-HA-FLAG (Protocadherin 19, endogenous in Pcdh19-HA-FLAG mice) (mouse (endogenous in mouse brain)) (UniProt Q80TF3)
T1 sequence: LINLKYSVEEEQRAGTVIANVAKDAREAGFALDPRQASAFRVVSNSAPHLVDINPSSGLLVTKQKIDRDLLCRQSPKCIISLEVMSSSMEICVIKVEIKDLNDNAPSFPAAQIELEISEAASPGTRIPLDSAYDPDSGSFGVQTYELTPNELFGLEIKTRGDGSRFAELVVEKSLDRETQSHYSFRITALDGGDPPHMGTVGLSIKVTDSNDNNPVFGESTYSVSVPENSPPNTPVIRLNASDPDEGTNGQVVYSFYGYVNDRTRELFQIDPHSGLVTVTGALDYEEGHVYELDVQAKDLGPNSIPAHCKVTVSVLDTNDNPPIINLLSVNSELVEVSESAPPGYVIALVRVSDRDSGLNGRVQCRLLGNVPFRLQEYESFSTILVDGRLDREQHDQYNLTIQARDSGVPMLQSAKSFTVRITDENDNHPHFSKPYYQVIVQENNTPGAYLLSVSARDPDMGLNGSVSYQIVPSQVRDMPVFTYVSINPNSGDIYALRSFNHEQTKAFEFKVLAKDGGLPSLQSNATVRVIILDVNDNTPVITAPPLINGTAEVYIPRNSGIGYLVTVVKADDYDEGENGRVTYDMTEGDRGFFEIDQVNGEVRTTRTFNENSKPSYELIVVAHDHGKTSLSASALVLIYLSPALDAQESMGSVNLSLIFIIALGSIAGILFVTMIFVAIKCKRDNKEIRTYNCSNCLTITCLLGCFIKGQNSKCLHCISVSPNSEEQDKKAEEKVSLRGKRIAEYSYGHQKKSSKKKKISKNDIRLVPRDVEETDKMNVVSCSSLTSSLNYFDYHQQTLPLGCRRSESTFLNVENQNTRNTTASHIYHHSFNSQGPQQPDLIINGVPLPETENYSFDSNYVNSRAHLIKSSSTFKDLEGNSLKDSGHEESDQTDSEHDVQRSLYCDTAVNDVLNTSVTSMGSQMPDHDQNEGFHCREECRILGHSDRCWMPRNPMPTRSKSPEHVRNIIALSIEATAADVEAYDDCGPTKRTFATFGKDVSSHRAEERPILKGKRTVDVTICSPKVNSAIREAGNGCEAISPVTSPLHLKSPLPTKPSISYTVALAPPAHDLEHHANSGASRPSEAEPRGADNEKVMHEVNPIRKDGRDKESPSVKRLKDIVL
Assay: affinity purification with mass spectrometry; Experiment 1: PCDH19-HA-FLAG precipitated with anti-FLAG M2 affinity gel from E18.5 mouse cortex lysate, control untagged mice; IP Buffer (50 mM Tris-HCl pH 7.5, 150 mM NaCl, 0.2% Triton-X-100, 2 mM EDTA, 0.01% SDS), overnight 4 °C; LC-MS/MS

B1: Sorbin and SH3 domain containing 2 (protein, UniProt Q3UTJ2 1-1180)
chain: MNTDSGGCARKRAAMSVTLTSVKRVQSSPNLLAAGRESQSPDSAWRSYNDRNPETLNGDATYSSLAAKGFRSVRPNLQDKRSPTQSQITINGNSGGAVSPVSYYQRPFSPSAYSLPASLNSSIIMQHGRSLDSAETYSQHAQSLDGTMGSSIPLYRSSEEEKRVTVIKAPHYPGIGPVDESGIPTAIRTTVDRPKDWYKTMFKQIHMVHKPGLYNSPYSAQSHPAAKTQTYRPLSKSHSDNGTDAFKEVPSPVPPPHVPPRPRDQSSTLKHDWDPPDRKVDTRKFRSEPRSIFEYEPGKSSILQHERPVSIYQSSIDRSLERPSSSASMAGDFRKRRKSEPAVGPLRGLGDQSSSRTSPGRADLPGSSSTFTKSFISSSPSSPSRAQGGDDSKMCPPLCSYSGLNGTPSGELECCNAYRQHLDVPGDSQRAITFKNGWQMARQNAEIWSSTEETVSPKIKSRSCDDLLNDDCDSFPDPKTKSESMGSLLCEEDSKESCPMTWASPYIQEVCGNSRSRLKHRSAHNAPGFLKMYKKMHRINRKDLMNSEVICSVKSRILQYEKEQQHRGLLHGWSQSSTEEVPRDVVPTRISEFEKLIQKSKSMPNLGDEMLSPITLEPPQNGLCPKRRFSIESLLEEETQVRHPSQGQRSCKSNTLVPIHIEVTSDEQPRTHMEFSDSDQDGVVSDHSDYVHVEGSSFCSESDFDHFSFTSSESFYGSSHHHHHHHHHHRHLISSCKGRCPASYTRFTTMLKHERAKHENMDRPRRQEMDPGLSKLAFLVSPVPFRRKKILTPQKQTEKAKCKASVVEALDSALKDICDQIKAEKRRGSLPDNSILHRLISELLPQIPERNSSLHALKRSPMHQPFHPLPPDGASHCPLYQNDCGRMPHSASFPDVDTTSNYHAQDYGSALSLQDHESPRSYSSTLTDLGRSASRERRGTPEKEKLPAKAVYDFKAQTSKELSFKKGDTVYILRKIDQNWYEGEHHGRVGIFPISYVEKLTPPEKAQPARPPPPVQPGEIGEAIAKYNFNADTNVELSLRKGDRIILLKRVDQNWYEGKIPGTNRQGIFPVSYVEVVKRNAKGAEDYPDPPLPHSYSSDRIYTLSSNKPQRPGFSHENIQGGGEPFQALYNYTPRNEDELELRESDVVDVMEKCDDGWFVGTSRRTKFFGTFPGNYVKRL
binding: binds

No constants are given. Whether binding was seen depends on the method and setting. Binding seen in cells or lysates may run through a third protein. These calls come from enrichment with a bait or labelling near it, and not all partners need be listed. Sequences can lack the tags named with a protein.
